The test has as its target CCN2/Connective Tissue Growth Factor, HA-tagged (CCN2-HA) (UniProt P29268). Briefly: co-IP; M-CCN2 cells treated with or without PDGF-B; immunoprecipitated with anti-HA antibody; blots probed with anti-PDGFRβ or anti-phospho (Y751) PDGFRβ.

Protein sequences, listed by entry. Tags and fused reporters are not part of them. Residues count along the entry.
UniProt P29268, residues 26-348: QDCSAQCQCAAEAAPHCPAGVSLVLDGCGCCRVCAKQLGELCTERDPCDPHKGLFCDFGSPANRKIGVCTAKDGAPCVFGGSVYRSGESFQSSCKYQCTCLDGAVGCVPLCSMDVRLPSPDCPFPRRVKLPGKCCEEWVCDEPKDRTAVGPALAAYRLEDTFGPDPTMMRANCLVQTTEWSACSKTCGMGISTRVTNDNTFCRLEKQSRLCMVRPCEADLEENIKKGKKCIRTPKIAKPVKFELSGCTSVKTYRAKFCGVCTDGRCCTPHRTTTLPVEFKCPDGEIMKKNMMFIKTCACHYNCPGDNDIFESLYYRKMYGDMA
UniProt P05622, residues 32-1098: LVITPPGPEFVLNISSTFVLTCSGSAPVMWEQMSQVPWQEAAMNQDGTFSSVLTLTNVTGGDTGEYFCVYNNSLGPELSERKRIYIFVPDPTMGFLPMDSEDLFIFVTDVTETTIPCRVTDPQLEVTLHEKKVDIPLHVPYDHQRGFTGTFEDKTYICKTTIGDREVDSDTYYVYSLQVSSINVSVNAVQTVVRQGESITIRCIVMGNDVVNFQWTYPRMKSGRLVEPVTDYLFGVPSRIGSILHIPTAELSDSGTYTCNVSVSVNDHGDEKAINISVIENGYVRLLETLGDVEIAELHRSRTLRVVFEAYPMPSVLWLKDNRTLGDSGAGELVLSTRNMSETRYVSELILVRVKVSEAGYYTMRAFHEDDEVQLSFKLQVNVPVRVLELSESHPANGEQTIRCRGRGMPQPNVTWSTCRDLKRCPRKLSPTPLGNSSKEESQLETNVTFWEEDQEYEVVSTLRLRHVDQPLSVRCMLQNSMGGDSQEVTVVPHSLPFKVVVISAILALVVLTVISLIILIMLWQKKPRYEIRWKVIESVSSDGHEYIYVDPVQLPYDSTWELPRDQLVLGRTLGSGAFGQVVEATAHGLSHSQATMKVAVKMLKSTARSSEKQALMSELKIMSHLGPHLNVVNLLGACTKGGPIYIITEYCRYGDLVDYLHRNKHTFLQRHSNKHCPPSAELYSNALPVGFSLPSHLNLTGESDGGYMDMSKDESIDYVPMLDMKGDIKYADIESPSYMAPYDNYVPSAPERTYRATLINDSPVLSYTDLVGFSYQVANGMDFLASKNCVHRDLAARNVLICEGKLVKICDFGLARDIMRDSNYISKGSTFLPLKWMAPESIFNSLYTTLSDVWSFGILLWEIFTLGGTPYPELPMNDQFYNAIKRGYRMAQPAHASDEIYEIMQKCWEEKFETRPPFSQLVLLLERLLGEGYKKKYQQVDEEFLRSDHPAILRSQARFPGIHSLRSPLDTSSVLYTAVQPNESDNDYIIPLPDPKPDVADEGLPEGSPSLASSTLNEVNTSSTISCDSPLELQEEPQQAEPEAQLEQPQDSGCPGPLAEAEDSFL

These are yes or no findings as the source states them, for the method shown. Binding seen in cells or lysates may run through a third protein.

Regarding “PDGF receptor β (PDGFRβ) (from UniProt P05622 32-1098)”, the binding result is listed as “no binding”.
